PubChem BioAssay AID493014 (National Center for Advancing Translational Sciences (NCATS), 2011)
The list shows a part of the results. The main result of the screen is listed elsewhere. These columns were measured beside it and carry no call. Most of these compounds were active or inconclusive in the main read-out, so they are no random draw. Words in brackets tell the shape of the fitted curve; partial curves, single points and poor fits give uncertain potencies.

Assay: qHTS Assay to Find Inhibitors of Chronic Active B-Cell Receptor Signaling
Conditions: ABC-DLBCL IkBa-CBG/CBR reporter, luminescence ratio (green luciferase fused to IkBa over red control in TMD8 lymphoma cells), 4 h
Outline: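 Doxycycline induced both beetle luciferases in TMD8 lymphoma cells; IKK-driven degradation limits the IkappaBalpha-fused green signal, while red luminescence normalises for cell number and nonspecific effects. Compounds tested up to 46 uM, 4 hrs.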

[1] = measured here: CBR red luminescence, cell number
[2] = measured here: IkBa-CBG green luminescence

| Structure (SMILES) | AC50 [1] | AC50 [2] |
| --- | --- | --- |
| O=C(O)Cn1c(O)c(C2=c3ccccc3=NC2=O)sc1=O | 15.8 µM [falling, partial curve, poor fit] | – |
| CCN(CCCNC(=O)c1[nH]c(C)c(C(C)=O)c1C)c1ccccc1 | 1.03 µM [rising, partial curve] | – |
| Cc1cc(NN)nc(NS(=O)(=O)c2ccccc2)n1 | 10 µM [falling, partial curve, poor fit] | – |
| O=C(/C=C/c1ccc(O)cc1)c1ccc(NC2=C(N3CCCCC3)C(=O)c3ccccc3C2=O)cc1 | 35.5 µM [falling, single point] | – |
| CCOC(=O)c1c(C)c(C(=O)OCC)n(C)c1C | 2.24 µM [rising, full curve] | 10 µM [falling, partial curve] |
| COCCNC(=S)N1CCc2cc(OC)c(OC)cc2C1c1cccs1 (stereo not drawn) | 35.5 µM [falling, single point] | – |
| CC(=O)NC(CC(=O)Nc1ccc(S(=O)(=O)N2CCCCC2)cc1)c1ccccc1 (stereo not drawn) | 18.4 µM [rising, partial curve, poor fit] | – |
| COC(=O)c1n[nH]n(-c2ccc(F)c(Cl)c2)c1=O | 12.6 µM [falling, partial curve] | – |
| O=C(CCl)N1CCN(S(=O)(=O)c2ccc3c(c2)OCCCO3)CC1 | 23.1 µM [falling, single point] | – |
| O=C(Cn1nnc(-c2ccc3c(c2)OCO3)n1)Nc1ccccc1C(=O)O | 3.98 µM [rising, partial curve, poor fit] | – |
| OC(COc1c(Br)cc(Br)cc1Br)CN1CCOCC1 (stereo not drawn) | 20 µM [falling, single point] | – |
| CCCCCn1c(N)c(-c2nc3ccccc3o2)c2c([N+](=O)[O-])nn(CC)c(=O)c21 | 0.291 µM [rising, full curve, poor fit] | – |
| O=S(=O)(c1ccc(S(=O)(=O)N2CCC3(CC2)OCCO3)cc1)N1CCCC1 | 2.82 µM [rising, partial curve, poor fit] | – |
| CCc1ccc(/C=N/NC(=O)c2cc(C3CC3)nc3ccccc23)s1 | 2.31 µM [rising, partial curve, poor fit] | 4.61 µM [falling, partial curve] |
| C[C@H](NC(=O)[C@@H]1Cc2ccccc2CN1)C(=O)NC1CCCCC1 | 20 µM [falling, single point] | – |
| CCS(=O)(=O)Nc1cccc(-c2ccc3nnc(C)n3n2)c1 | – | 15.8 µM [falling, partial curve, poor fit] |
| O=S(=O)(Cc1cnc(Cl)s1)c1ccccc1 | 16.4 µM [rising, single point] | – |
| O=C(CCN1C(=O)c2ccccc2S1(=O)=O)Nc1ccccc1O | 4.11 µM [falling, full curve] | – |
| Cn1c(-c2c(N)n(CCCc3ccccc3)c3nc4ccccc4nc23)nc2ccccc21 | 5.62 µM [falling, partial curve, poor fit] | – |
| N#C/C(=C\c1ccc(Cl)cc1)c1nc2ccccc2o1 | – | 29.1 µM [falling, partial curve, poor fit] |

| Structure (SMILES) | AC50 [1] | AC50 [2] |
| --- | --- | --- |
| Cc1ccc(NC(=O)C(=O)NC2CCCCC2)cc1 | 0.0259 µM [falling, full curve] | – |
| O=C(N/N=C/c1ccncc1)c1nc(-c2ccccc2)n2c1CCCCC2 | 1.41 µM [rising, partial curve, poor fit] | – |
| COC(=O)c1ccc(CSc2nc3c(c(=O)n2-c2ccc(C)cc2)SCC3)o1 | 3.26 µM [rising, full curve] | – |
| CCOC(=O)C1=NOC2C(=O)N(c3ccc(Cl)cc3Cl)C(=O)C12 (stereo not drawn) | 14.1 µM [falling, single point] | – |
| NC(=O)C1(N2CCCCC2)CCN(C(=O)Nc2ccccc2C(F)(F)F)CC1 | 6.51 µM [falling, partial curve, poor fit] | – |
| Cc1cc(C)cc(NC(=O)Cn2nnc(-c3ccccc3F)n2)c1 | 7.08 µM [rising, partial curve] | – |
| COc1cccc(NC(=O)Nc2ccc(Cc3ccncc3)cc2)c1 | 29.1 µM [falling, single point] | – |
| C/C(=N\NS(=O)(=O)c1ccc(Cl)cc1)c1ccc(NC(=O)c2ccco2)cc1 | 20.6 µM [falling, single point] | – |
| CSc1ncccc1C(=O)OCc1ccc([N+](=O)[O-])cc1 | 14.1 µM [rising, single point] | – |
| CCCCN1Cc2cc(C(=O)c3cc(F)ccc3O)cnc2NC1=O | 35.5 µM [falling, single point] | – |
| COc1ccc(NC(=O)Nc2cccc3ccccc23)cc1OC | 0.355 µM [falling, full curve] | – |
| Cc1ccc(CNC(=O)c2cn(C3CCCCC3)c(=O)c3c2c2ccccc2n3C)o1 | 2.59 µM [rising, single point] | – |
| O=C1C(Cl)=C(N2CCC(C(=O)O)CC2)C(=O)c2ccccc21 | 8.91 µM [falling, partial curve, poor fit] | – |
| COc1cccc(-c2cc(N3C(=O)Nc4ccccc4N3O)n[nH]2)c1 | 18.4 µM [falling, single point] | – |
| CC[N+](C)(C)CCN(Cc1ccc(Cl)cc1)c1ccccn1 | 29.1 µM [falling, single point] | – |
| COc1cc(/C=N/N2C(=O)c3ccccc3NC2(C)c2cccc([N+](=O)[O-])c2)cc(Br)c1O (stereo not drawn) | 35.5 µM [falling, single point] | – |
| CCn1c(=O)c(C(=O)CN2c3ccccc3CC2C)c(N)n(Cc2ccccc2)c1=O (stereo not drawn) | 29.1 µM [falling, single point] | – |
| COc1ccccc1NS(=O)(=O)c1ccc(-c2cnc(C3CC3)o2)cc1 | 7.94 µM [rising, partial curve, poor fit] | 11.2 µM [falling, partial curve] |
| O=C1Nc2ccccc2/C1=C\C(=O)c1ccccc1 | 11.2 µM [falling, partial curve, poor fit] | – |
| CCOc1ccccc1OCC(=O)Nc1nnc(C)s1 | 23.1 µM [falling, single point] | – |

Filtered by structure, those above containing an aryl thioether with sulfur outside any ring (2)

| Structure (SMILES) | AC50 [1] | AC50 [2] |
| --- | --- | --- |
| COC(=O)c1ccc(CSc2nc3c(c(=O)n2-c2ccc(C)cc2)SCC3)o1 | 3.26 µM [rising, full curve] | – |
| CSc1ncccc1C(=O)OCc1ccc([N+](=O)[O-])cc1 | 14.1 µM [rising, single point] | – |
